Data source: PubChem BioAssay AID1224830 (NIAID, 2016)
Purpose: 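Regulators of TLR4 signalling towards TNF-alpha in macrophage-like cells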 (primary screen). Cells: human THP-1 monocytic leukaemia cells, TNF dual-luciferase reporter clone, PMA-differentiated to macrophage-like cells. Reagents: siRNA pool against human genes, 50 nM. Timing: LPS for 4 h, given about 3 days after siRNA transfection. Challenge: bacterial LPS (TLR4 ligand), 10 ng/ml. Read-out: 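Ratio of firefly to renilla light, scaled to the plate median and expressed as a robust z-score per replicate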. Direction: TNF reporter robust z-score: higher = stronger TNF reporter response to LPS. Call rule: 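Each well counts as active if its z-score is over 2.8 or under -1.5; controls are left without a call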.
The deposit covers about 18,000 reagents; shown is a random part of them. About 2,900 of them (16%) were called active. 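Calls are made per well; low scores hint the gene aids the LPS response, high scores that it dampens it.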 Reagents against one gene are numbered here. Repeated entries: four replicate wells of each siRNA pool. No sequences are given here.

gene knocked down | reagent no. | TNF reporter robust z-score | Call
NCOA3 | 1 | -0.82 | inactive
NCOA3 | 1 | -1.2 | inactive
NCOA3 | 1 | -1.35 | inactive
NCOA3 | 1 | -0.89 | inactive
FLT1 | 1 | -0.14 | inactive
FLT1 | 1 | 0.53 | inactive
FLT1 | 1 | 0.12 | inactive
FLT1 | 1 | 1.54 | inactive
WDR35 | 1 | -0.14 | inactive
WDR35 | 1 | -0.31 | inactive
WDR35 | 1 | -1.11 | inactive
WDR35 | 1 | -0.84 | inactive
AKT1S1 | 1 | -0.17 | inactive
AKT1S1 | 1 | 0.75 | inactive
AKT1S1 | 1 | 0.49 | inactive
AKT1S1 | 1 | 0.7 | inactive
GSAP | 1 | 0.42 | inactive
GSAP | 1 | -0.78 | inactive
GSAP | 1 | -1.32 | inactive
GSAP | 1 | -0.28 | inactive
CKMT1A | 1 | -0.01 | inactive
CKMT1A | 1 | 0.34 | inactive
CKMT1A | 1 | 0.35 | inactive
CKMT1A | 1 | 0.48 | inactive
CAPZA2 | 1 | 0.95 | inactive
CAPZA2 | 1 | 2.76 | inactive
CAPZA2 | 1 | 1.75 | inactive
CCDC27 | 1 | 0.81 | inactive
CCDC27 | 1 | -0.43 | inactive
CCDC27 | 1 | 0.65 | inactive
CCDC27 | 1 | 1.9 | inactive
SHC4 | 1 | -0.31 | inactive
SHC4 | 1 | 0.52 | inactive
SHC4 | 1 | -0.45 | inactive
SHC4 | 1 | 0.3 | inactive
RBFOX3 | 1 | 0.27 | inactive
RBFOX3 | 1 | 2.42 | inactive
RBFOX3 | 1 | -0.19 | inactive
RBFOX3 | 1 | -0.79 | inactive
RBFOX3 | 2 | -1.4 | inactive
RBFOX3 | 2 | -1.08 | inactive
RBFOX3 | 2 | -0.99 | inactive
RBFOX3 | 2 | 0.05 | inactive
AP1G2 | 1 | 0.31 | inactive
AP1G2 | 1 | 0.57 | inactive
AP1G2 | 1 | 0.59 | inactive
AP1G2 | 1 | 1.18 | inactive
HEMK2 | 1 | -0.12 | inactive
HEMK2 | 1 | 0.93 | inactive
HEMK2 | 1 | 0.49 | inactive
HEMK2 | 1 | 1.91 | inactive
CES4A | 1 | -1.24 | inactive
CES4A | 1 | -1.01 | inactive
CES4A | 1 | -1.22 | inactive
CES4A | 1 | -1.02 | inactive
ZNF432 | 1 | 2.21 | inactive
ZNF432 | 1 | 1.12 | inactive
ZNF432 | 1 | 1.1 | inactive
ZNF432 | 1 | 1.43 | inactive

The results go on.
gene knocked down | reagent no. | TNF reporter robust z-score | Call
EMC8 | 1 | 0.96 | inactive
EMC8 | 1 | -1 | inactive
EMC8 | 1 | 0.83 | inactive
EMC8 | 1 | 0.39 | inactive
AURKB | 1 | 3.16 | active
AURKB | 1 | 1.28 | inactive
AURKB | 1 | 0.55 | inactive
AURKB | 1 | 0.02 | inactive
ZNF254 | 1 | -0.39 | inactive
ZNF254 | 1 | -0.48 | inactive
ZNF254 | 1 | -1.17 | inactive
ZNF254 | 1 | -0.36 | inactive
PTPN5 | 1 | -0.5 | inactive
PTPN5 | 1 | 0.26 | inactive
PTPN5 | 1 | -0.06 | inactive
PTPN5 | 1 | -0.04 | inactive
PTPRJ | 1 | 0.34 | inactive
PTPRJ | 1 | 0 | inactive
PTPRJ | 1 | 0.02 | inactive
PTPRJ | 1 | -0.01 | inactive
PCDHGA4 | 1 | -0.57 | inactive
PCDHGA4 | 1 | -0.17 | inactive
PCDHGA4 | 1 | -0.42 | inactive
PCDHGA4 | 1 | 0.01 | inactive
CWF19L1 | 1 | -1.26 | inactive
CWF19L1 | 1 | -0.1 | inactive
CWF19L1 | 1 | -1.17 | inactive
CWF19L1 | 1 | -0.97 | inactive
TMEM106C | 1 | -1.03 | inactive
TMEM106C | 1 | -0.08 | inactive
TMEM106C | 1 | -0.83 | inactive
TMEM106C | 1 | -0.95 | inactive
MAP3K11 | 1 | -0.59 | inactive
MAP3K11 | 1 | -0.68 | inactive
MAP3K11 | 1 | -0.41 | inactive
MAP3K11 | 1 | -0.78 | inactive
MRPL16 | 1 | -1 | inactive
MRPL16 | 1 | -0.79 | inactive
MRPL16 | 1 | -0.71 | inactive
MRPL16 | 1 | -0.53 | inactive
FARS2 | 1 | -0.23 | inactive
FARS2 | 1 | 0.84 | inactive
FARS2 | 1 | 0.07 | inactive
FARS2 | 1 | 1.09 | inactive
TAC1 | 1 | 0.57 | inactive
TAC1 | 1 | -0.03 | inactive
TAC1 | 1 | 0.41 | inactive
TAC1 | 1 | -0.11 | inactive
HLA-A | 1 | 1.29 | inactive
HLA-A | 1 | 2.13 | inactive
HLA-A | 1 | 0 | inactive
HLA-A | 1 | 0.93 | inactive
